{"source": "paper PMC11736008", "key": {"[1]": {"target": "T1, IFIT1 (human (endogenous in H1975)) (UniProt P09914)", "T1 sequence": "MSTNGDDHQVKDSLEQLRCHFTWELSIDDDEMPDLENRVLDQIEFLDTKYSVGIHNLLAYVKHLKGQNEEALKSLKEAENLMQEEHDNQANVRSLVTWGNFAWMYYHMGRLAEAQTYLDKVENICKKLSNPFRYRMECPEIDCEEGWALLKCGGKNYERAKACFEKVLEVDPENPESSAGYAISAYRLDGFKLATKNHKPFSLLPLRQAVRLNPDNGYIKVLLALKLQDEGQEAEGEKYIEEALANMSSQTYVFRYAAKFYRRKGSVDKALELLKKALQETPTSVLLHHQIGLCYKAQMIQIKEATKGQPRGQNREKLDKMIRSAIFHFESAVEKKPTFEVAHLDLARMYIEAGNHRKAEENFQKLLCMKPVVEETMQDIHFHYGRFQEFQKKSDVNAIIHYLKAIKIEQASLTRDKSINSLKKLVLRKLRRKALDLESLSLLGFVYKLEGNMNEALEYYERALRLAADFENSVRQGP", "test": "co-IP; endogenous proteins in cell lysate (H1975 for OAS1/IFIT1); Western/IP lysis buffer, 3 ug of anti-OAS or anti-IFIT antibody and protein A/G beads overnight at 4 °C; IgG control in parallel; immunoblot"}, "IFIT5": {"target": "T2, IFIT5 (UniProt Q13325)", "T2 sequence": "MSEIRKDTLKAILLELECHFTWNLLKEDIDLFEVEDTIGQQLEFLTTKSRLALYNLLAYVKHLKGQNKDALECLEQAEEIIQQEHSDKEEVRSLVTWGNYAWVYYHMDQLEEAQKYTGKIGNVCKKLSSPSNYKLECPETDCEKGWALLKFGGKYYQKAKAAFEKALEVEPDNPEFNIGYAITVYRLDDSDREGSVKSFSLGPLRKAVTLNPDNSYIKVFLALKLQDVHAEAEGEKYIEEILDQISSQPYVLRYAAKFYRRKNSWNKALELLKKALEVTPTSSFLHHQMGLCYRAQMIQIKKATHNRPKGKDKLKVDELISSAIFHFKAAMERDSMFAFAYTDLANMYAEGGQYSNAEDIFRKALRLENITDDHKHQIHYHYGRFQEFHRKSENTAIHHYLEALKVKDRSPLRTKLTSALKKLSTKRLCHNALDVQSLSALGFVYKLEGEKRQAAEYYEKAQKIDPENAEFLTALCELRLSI", "test": "co-IP; anti-Myc antibodies on lysates of H1975 cells overexpressing HA-tagged OAS (WT or Del-NT) and Myc-tagged IFIT (WT or Del-TPR12); protein A/G beads overnight at 4 °C; immunoblot (OAS3/IFIT3 and OAS2/IFIT5 in Fig. S8C, details not shown)"}, "[2]": {"target": "T3, IFIT2 (human (endogenous in human LUAD cell line)) (UniProt P09913)", "T3 sequence": "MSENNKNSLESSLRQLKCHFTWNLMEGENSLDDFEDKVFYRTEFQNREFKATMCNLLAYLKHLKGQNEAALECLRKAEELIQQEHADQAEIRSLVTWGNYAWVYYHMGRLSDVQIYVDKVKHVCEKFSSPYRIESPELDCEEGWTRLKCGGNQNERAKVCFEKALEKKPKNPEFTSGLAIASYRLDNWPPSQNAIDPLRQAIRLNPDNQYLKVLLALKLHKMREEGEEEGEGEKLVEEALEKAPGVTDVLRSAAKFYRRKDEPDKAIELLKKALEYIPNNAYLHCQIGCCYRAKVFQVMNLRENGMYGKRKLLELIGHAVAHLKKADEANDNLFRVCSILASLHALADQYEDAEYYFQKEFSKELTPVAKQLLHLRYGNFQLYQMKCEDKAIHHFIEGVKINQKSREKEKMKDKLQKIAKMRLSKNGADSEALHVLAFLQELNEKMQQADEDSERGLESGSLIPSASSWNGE", "test": "co-IP; endogenous proteins in cell lysate (H1975 for OAS1/IFIT1); Western/IP lysis buffer, 3 ug of anti-OAS or anti-IFIT antibody and protein A/G beads overnight at 4 °C; IgG control in parallel; immunoblot"}, "[3]": {"target": "T4, IFIT3 (human (endogenous in human LUAD cell line)) (UniProt O14879)", "T4 sequence": "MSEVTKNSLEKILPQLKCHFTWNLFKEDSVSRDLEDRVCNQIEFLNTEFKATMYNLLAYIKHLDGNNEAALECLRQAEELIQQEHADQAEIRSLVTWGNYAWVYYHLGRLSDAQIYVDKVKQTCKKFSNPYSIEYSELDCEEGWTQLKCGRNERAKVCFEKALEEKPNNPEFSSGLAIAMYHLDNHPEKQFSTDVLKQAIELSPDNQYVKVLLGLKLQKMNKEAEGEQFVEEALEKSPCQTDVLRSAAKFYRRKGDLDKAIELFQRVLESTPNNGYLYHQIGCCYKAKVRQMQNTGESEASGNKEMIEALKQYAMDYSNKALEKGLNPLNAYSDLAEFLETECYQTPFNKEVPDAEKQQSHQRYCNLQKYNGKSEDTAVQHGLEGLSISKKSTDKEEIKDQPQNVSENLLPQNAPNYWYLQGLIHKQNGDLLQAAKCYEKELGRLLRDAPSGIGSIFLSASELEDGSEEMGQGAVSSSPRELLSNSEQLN", "test": "co-IP; endogenous proteins in cell lysate (H1975 for OAS1/IFIT1); Western/IP lysis buffer, 3 ug of anti-OAS or anti-IFIT antibody and protein A/G beads overnight at 4 °C; IgG control in parallel; immunoblot"}, "[4]": {"target": "T5, IFIT3 (in the intrapulmonary H1975 / AAV5-infected mouse model) (human (endogenous in H1975 cells implanted in mouse lung)) (UniProt O14879)", "T5 sequence": "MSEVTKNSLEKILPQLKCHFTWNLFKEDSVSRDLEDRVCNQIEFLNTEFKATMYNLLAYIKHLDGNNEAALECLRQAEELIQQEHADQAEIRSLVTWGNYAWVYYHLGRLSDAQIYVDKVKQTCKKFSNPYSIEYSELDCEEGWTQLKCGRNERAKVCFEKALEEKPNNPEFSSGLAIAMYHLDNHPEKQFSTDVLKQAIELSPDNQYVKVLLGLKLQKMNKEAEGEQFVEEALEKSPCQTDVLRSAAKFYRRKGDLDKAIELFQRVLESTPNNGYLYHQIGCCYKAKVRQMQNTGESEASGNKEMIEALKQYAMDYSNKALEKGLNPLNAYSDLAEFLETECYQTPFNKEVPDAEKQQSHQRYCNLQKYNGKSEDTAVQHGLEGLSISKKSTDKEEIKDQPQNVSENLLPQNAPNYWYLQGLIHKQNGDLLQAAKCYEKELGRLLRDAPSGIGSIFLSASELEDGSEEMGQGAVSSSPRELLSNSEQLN", "test": "co-IP; anti-OAS2 or anti-IFIT3 antibodies on samples of the intrapulmonary injection LUAD-bearing (H1975) mouse model infected with NC or IFIT3-inhibitor AAV; IgG control in parallel; immunoblot"}}, "note": "Results are given in words; binding and its absence hold for the method and conditions named. In cells and extracts the contact can be indirect. Some binding calls cover weakened binding; strength is not graded here.", "data": [{"binder": "OAS1 (protein, UniProt P00973 1-400) MMDLRNTPAKSLDKFIEDYLLPDTCFRMQINHAIDIICGFLKERCFRGSSYPVCVSKVVKGGSSGKGTTLRGRSDADLVVFLSPLTTFQDQLNRRGEFIQEIRRQLEACQRERAFSVKFEVQAPRWGNPRALSFVLSSLQLGEGVEFDVLPAFDALGQLTGGYKPNPQIYVKLIEECTDLQKEGEFSTCFTELQRDFLKQRPTKLKSLIRLVKHWYQNCKKKLGKLPPQYALELLTVYAWERGSMKTHFNTAQGFRTVLELVINYQQLCIYWTKYYDFKNPIIEKYLRRQLTKPRPVILDPADPTGNLGGGDPKGWRQLAQEAEAWLNYPCFKNWDGSPVSSWILLAESNSADDETDDPRRYQKYGYIGTHEYPHFSHRPSTLQAASTPQAEEDWTCTIL", "values": [{"measurement": "binding", "setting": "[1]", "result": "binds"}]}, {"binder": "OAS2^WT (protein, UniProt P29728 1-719) MGNGESQLSSVPAQKLGWFIQEYLKPYEECQTLIDEMVNTICDVLQEPEQFPLVQGVAIGGSYGRKTVLRGNSDGTLVLFFSDLKQFQDQKRSQRDILDKTGDKLKFCLFTKWLKNNFEIQKSLDGFTIQVFTKNQRISFEVLAAFNALSLNDNPSPWIYRELKRSLDKTNASPGEFAVCFTELQQKFFDNRPGKLKDLILLIKHWHQQCQKKIKDLPSLSPYALELLTVYAWEQGCRKDNFDIAEGVRTVLELIKCQEKLCIYWMVNYNFEDETIRNILLHQLQSARPVILDPVDPTNNVSGDKICWQWLKKEAQTWLTSPNLDNELPAPSWNVLPAPLFTTPGHLLDKFIKEFLQPNKCFLEQIDSAVNIIRTFLKENCFRQSTAKIQIVRGGSTAKGTALKTGSDADLVVFHNSLKSYTSQKNERHKIVKEIHEQLKAFWREKEEELEVSFEPPKWKAPRVLSFSLKSKVLNESVSFDVLPAFNALGQLSSGSTPSPEVYAGLIDLYKSSDLPGGEFSTCFTVLQRNFIRSRPTKLKDLIRLVKHWYKECERKLKPKGSLPPKYALELLTIYAWEQGSGVPDFDTAEGFRTVLELVTQYQQLCIFWKVNYNFEDETVRKFLLSQLQKTRPVILDPAEPTGDVGGGDRWCWHLLAKEAKEWLSSPCFKDGTGNPIPPWKVPTMQTPGSCGARIHPIVNEMFSSRSHRILNNNSKRNF", "values": [{"measurement": "binding", "setting": "IFIT5", "result": "binds"}]}, {"binder": "OAS2 (protein, UniProt P29728 1-719) MGNGESQLSSVPAQKLGWFIQEYLKPYEECQTLIDEMVNTICDVLQEPEQFPLVQGVAIGGSYGRKTVLRGNSDGTLVLFFSDLKQFQDQKRSQRDILDKTGDKLKFCLFTKWLKNNFEIQKSLDGFTIQVFTKNQRISFEVLAAFNALSLNDNPSPWIYRELKRSLDKTNASPGEFAVCFTELQQKFFDNRPGKLKDLILLIKHWHQQCQKKIKDLPSLSPYALELLTVYAWEQGCRKDNFDIAEGVRTVLELIKCQEKLCIYWMVNYNFEDETIRNILLHQLQSARPVILDPVDPTNNVSGDKICWQWLKKEAQTWLTSPNLDNELPAPSWNVLPAPLFTTPGHLLDKFIKEFLQPNKCFLEQIDSAVNIIRTFLKENCFRQSTAKIQIVRGGSTAKGTALKTGSDADLVVFHNSLKSYTSQKNERHKIVKEIHEQLKAFWREKEEELEVSFEPPKWKAPRVLSFSLKSKVLNESVSFDVLPAFNALGQLSSGSTPSPEVYAGLIDLYKSSDLPGGEFSTCFTVLQRNFIRSRPTKLKDLIRLVKHWYKECERKLKPKGSLPPKYALELLTIYAWEQGSGVPDFDTAEGFRTVLELVTQYQQLCIFWKVNYNFEDETVRKFLLSQLQKTRPVILDPAEPTGDVGGGDRWCWHLLAKEAKEWLSSPCFKDGTGNPIPPWKVPTMQTPGSCGARIHPIVNEMFSSRSHRILNNNSKRNF", "values": [{"measurement": "binding", "setting": "[2]", "result": "binds"}]}, {"binder": "OAS3 (protein, UniProt Q9Y6K5 1-1087) MDLYSTPAAALDRFVARRLQPRKEFVEKARRALGALAAALRERGGRLGAAAPRVLKTVKGGSSGRGTALKGGCDSELVIFLDCFKSYVDQRARRAEILSEMRASLESWWQNPVPGLRLTFPEQSVPGALQFRLTSVDLEDWMDVSLVPAFNVLGQAGSGVKPKPQVYSTLLNSGCQGGEHAACFTELRRNFVNIRPAKLKNLILLVKHWYHQVCLQGLWKETLPPVYALELLTIFAWEQGCKKDAFSLAEGLRTVLGLIQQHQHLCVFWTVNYGFEDPAVGQFLQRQLKRPRPVILDPADPTWDLGNGAAWHWDLLAQEAASCYDHPCFLRGMGDPVQSWKGPGLPRAGCSGLGHPIQLDPNQKTPENSKSLNAVYPRAGSKPPSCPAPGPTGAASIVPSVPGMALDLSQIPTKELDRFIQDHLKPSPQFQEQVKKAIDIILRCLHENCVHKASRVSKGGSFGRGTDLRDGCDVELIIFLNCFTDYKDQGPRRAEILDEMRAQLESWWQDQVPSLSLQFPEQNVPEALQFQLVSTALKSWTDVSLLPAFDAVGQLSSGTKPNPQVYSRLLTSGCQEGEHKACFAELRRNFMNIRPVKLKNLILLVKHWYRQVAAQNKGKGPAPASLPPAYALELLTIFAWEQGCRQDCFNMAQGFRTVLGLVQQHQQLCVYWTVNYSTEDPAMRMHLLGQLRKPRPLVLDPADPTWNVGHGSWELLAQEAAALGMQACFLSRDGTSVQPWDVMPALLYQTPAGDLDKFISEFLQPNRQFLAQVNKAVDTICSFLKENCFRNSPIKVIKVVKGGSSAKGTALRGRSDADLVVFLSCFSQFTEQGNKRAEIISEIRAQLEACQQERQFEVKFEVSKWENPRVLSFSLTSQTMLDQSVDFDVLPAFDALGQLVSGSRPSSQVYVDLIHSYSNAGEYSTCFTELQRDFIISRPTKLKSLIRLVKHWYQQCTKISKGRGSLPPQHGLELLTVYAWEQGGKDSQFNMAEGFRTVLELVTQYRQLCIYWTINYNAKDKTVGDFLKQQLQKPRPIILDPADPTGNLGHNARWDLLAKEAAACTSALCCMGRNGIPIQPWPVKAAV", "values": [{"measurement": "binding", "setting": "[3]", "result": "binds"}]}, {"binder": "OAS2 (in the intrapulmonary H1975 / AAV5-infected mouse model) (protein, UniProt P29728 1-719) MGNGESQLSSVPAQKLGWFIQEYLKPYEECQTLIDEMVNTICDVLQEPEQFPLVQGVAIGGSYGRKTVLRGNSDGTLVLFFSDLKQFQDQKRSQRDILDKTGDKLKFCLFTKWLKNNFEIQKSLDGFTIQVFTKNQRISFEVLAAFNALSLNDNPSPWIYRELKRSLDKTNASPGEFAVCFTELQQKFFDNRPGKLKDLILLIKHWHQQCQKKIKDLPSLSPYALELLTVYAWEQGCRKDNFDIAEGVRTVLELIKCQEKLCIYWMVNYNFEDETIRNILLHQLQSARPVILDPVDPTNNVSGDKICWQWLKKEAQTWLTSPNLDNELPAPSWNVLPAPLFTTPGHLLDKFIKEFLQPNKCFLEQIDSAVNIIRTFLKENCFRQSTAKIQIVRGGSTAKGTALKTGSDADLVVFHNSLKSYTSQKNERHKIVKEIHEQLKAFWREKEEELEVSFEPPKWKAPRVLSFSLKSKVLNESVSFDVLPAFNALGQLSSGSTPSPEVYAGLIDLYKSSDLPGGEFSTCFTVLQRNFIRSRPTKLKDLIRLVKHWYKECERKLKPKGSLPPKYALELLTIYAWEQGSGVPDFDTAEGFRTVLELVTQYQQLCIFWKVNYNFEDETVRKFLLSQLQKTRPVILDPAEPTGDVGGGDRWCWHLLAKEAKEWLSSPCFKDGTGNPIPPWKVPTMQTPGSCGARIHPIVNEMFSSRSHRILNNNSKRNF", "values": [{"measurement": "binding", "setting": "[4]", "result": "binds"}]}]}
